Experiment [1] concerns the target T1, P467_RHIPU, yeast surface display, C-terminal SAG1 fusion (Rhipicephalus pulchellus) (UniProt L7M8Z8).
T1 sequence: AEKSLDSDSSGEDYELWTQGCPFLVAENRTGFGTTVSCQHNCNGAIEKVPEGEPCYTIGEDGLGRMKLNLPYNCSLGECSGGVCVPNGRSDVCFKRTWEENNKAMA
Put plainly: flow cytometry on cells; yeast (EBY100) displaying one evasin fusion after galactose induction, labelled in PBS with biotinylated chemokine (Almac) and streptavidin-Alexa647, 30 minutes on ice; compared with yeast bearing the empty surface display vector; only the binder purified. On the technique in general: In flow cytometry, cells or beads pass a laser one at a time.

The target of experiment [2] is T2, P467_RHIPU, yeast surface display, N-terminal AGA2 fusion (Rhipicephalus pulchellus) (UniProt L7M8Z8).
T2 sequence: T1 sequence
The experiment is described as above.

Experiment [3] concerns the target T3, P1180_AMBTR, yeast surface display library clones (Amblyomma triste).
T3 sequence: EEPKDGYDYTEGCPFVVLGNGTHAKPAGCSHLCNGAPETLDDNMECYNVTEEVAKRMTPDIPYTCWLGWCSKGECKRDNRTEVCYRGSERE
Put plainly: flow cytometry on cells; yeast surface display library (mini-library of 24, maxi-library of 352 putative evasins; N-terminal AGA2, C-terminal SAG1 or AGA2) labelled with one biotinylated human CC chemokine and streptavidin-AF647, two rounds of FACS with a gate set by omitting the chemokine; clones sequenced, re-transformed and retested by FACS; only the binder purified.

Experiment [4] deals with T4, P1182_AMBMA, yeast surface display library clones (Amblyomma maculatum) (UniProt G3MJ83).
T4 sequence: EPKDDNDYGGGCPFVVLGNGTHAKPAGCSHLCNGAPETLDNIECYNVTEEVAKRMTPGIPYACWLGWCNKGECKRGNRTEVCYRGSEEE
The experiment is described as above.

Experiment [5] deals with T5, P974_AMBCA, yeast surface display library clones (Amblyomma cajennense).
T5 sequence: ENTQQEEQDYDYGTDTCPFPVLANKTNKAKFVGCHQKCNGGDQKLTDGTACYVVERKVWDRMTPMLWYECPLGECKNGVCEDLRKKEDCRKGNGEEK
The description is as above.

Experiment [6] concerns the target T6, P991_AMBCA, yeast surface display library clones (Amblyomma cajennense).
T6 sequence: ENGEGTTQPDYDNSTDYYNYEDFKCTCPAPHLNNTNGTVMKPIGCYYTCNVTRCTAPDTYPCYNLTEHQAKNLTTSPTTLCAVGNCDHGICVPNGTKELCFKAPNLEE
The experiment is described as above.

Experiment [7] addresses T7, P546_AMBCA, yeast surface display library clones (Amblyomma cajennense), A0A023.
T7 chain: T5 sequence with Q8E, E69S, D88E
Described as above. The settings on record: remark: other sources report otherwise.

Experiment [8] concerns the target T8, P467_RHIPU, yeast surface display, C-terminal SAG1 fusion (Rhipicephalus pulchellus), L7M8Z8.
T8 chain: T1 sequence
Nature of the experiment: flow cytometry on cells; yeast (EBY100) displaying one evasin fusion after galactose induction, labelled in PBS with biotinylated chemokine (Almac) and streptavidin-Alexa647, 30 minutes on ice; compared with yeast bearing the empty surface display vector; only the binder purified. Particulars: remark: other sources report otherwise.

The target in experiment [9] is T9, P467_RHIPU, yeast surface display library clones (Rhipicephalus pulchellus) (UniProt L7M8Z8).
T9 sequence: T1 sequence
Put plainly: flow cytometry on cells; yeast surface display library (mini-library of 24, maxi-library of 352 putative evasins; N-terminal AGA2, C-terminal SAG1 or AGA2) labelled with one biotinylated human CC chemokine and streptavidin-AF647, two rounds of FACS with a gate set by omitting the chemokine; clones sequenced, re-transformed and retested by FACS; only the binder purified.

In experiment [10] the target is T10, P546_AMBCA, yeast surface display library clones (Amblyomma cajennense).
T10 sequence: T5 sequence with Q8E, E69S, D88E
Described as above.

Changes are numbered by the printed parent chain. These are yes or no findings as the source states them, for the method shown. Some entries that bind do so weakly or less than the wild type. For some assays here: Tags and fused reporters may be left off the sequences shown.

B1: biotinylated CCL18 (ligand, UniProt P55774 21-89)
chain: AQVGTNKELCCLVYTSWQIPQKFIVDYSETSPQCPKPGVILLTKRGRQICADPNKKWVQKYISDLKLNA
Turning to B1, the binding result in experiment [1], in [2], in experiment [3], in [4], in experiment [5] and in [6] was “binds” in each case.

B2: biotinylated CCL5, P13501 24-91 (ligand)
chain: SPYSSDTTPCCFAYIARPLPRAHIKEYFYTSGKCSNPAVVFVTRKNRQVCANPEKKWVREYINSLEMS
For B2, the binding entry in [7] was “binds”.

B3: biotinylated CCL17, Q92583 24-94 (ligand)
chain: ARGTNVGRECCLEYFKGAIPLRKLKTWYQTSEDCSRDAIVFVTVQGRAICSDPNNKRVKNAVKYLQSLERS
On to B3, for which, in experiment [8], the binding entry was “binds”.

B4: biotinylated CCL1 (ligand, UniProt P22362 24-96)
chain: KSMQVPFSRCCFSFAEQEIPLRAILCYRNTSSICSNEGLIFKLKRGKEACALDTVGWVQRHRKMLRHCPSKRK
As for B4, the binding entry in experiment [1], in [9], in [10] and in experiment [5] was “binds” throughout.

B5: biotinylated CCL22, O00626 25-93 (ligand)
chain: GPYGANMEDSVCCRDYVRYRLPLRVVKHFYWTSDSCPRPGVVLLTFRDKEICADPRVPWVKMILNKLSQ
B5: the binding result in experiment [8] was “binds”.

B6: biotinylated CCL22 (ligand, UniProt O00626 25-93)
chain: B5 chain
With B6, the binding result in experiment [10], in experiment [5] and in experiment [6] was “binds” throughout.

B7: biotinylated CCL19, Q99731 22-98 (ligand)
chain: GTNDAEDCCLSVTQKPIPGYIVRNFHYLLIKDGCRVPAVVFTTLRGRQLCAPPDQPWVERIIQRLQRTSAKMKRRSS
As to B7, the binding entry in experiment [8] is “binds”.

Source of the values: PMC5487423.
